Measured values taken from patent publication US20240383982A1.
These are yes or no findings as the source states them, for the method shown.

How the values were obtained:
[1] = target: human B7H4, full length, on cells (human) (UniProt Q7Z7D3); experiment: flow cytometry, HEK cells transiently transfected with human B7H4 [panel B7H4]
[2] = target: human B7H4, full length, on cells (human) (UniProt Q7Z7D3); experiment: flow cytometry on HCC1954 tumor cells [HCC1954 panels]
B7H3-IgV/B7H4-IgC = experiment: flow cytometry, HEK cells transiently transfected with B7H3-IgV/B7H4-IgC [panel B7H3-IgV/B7H4-IgC]
B7H4-IgV/B7H3-IgC = target: T1, B7H4-IgV/B7H3-IgC; experiment: flow cytometry, HEK cells transiently transfected with B7H4-IgV/B7H3-IgC [panel B7H4-IgV/B7H3-IgC]
T1 sequence (full-length chimeric protein on cells): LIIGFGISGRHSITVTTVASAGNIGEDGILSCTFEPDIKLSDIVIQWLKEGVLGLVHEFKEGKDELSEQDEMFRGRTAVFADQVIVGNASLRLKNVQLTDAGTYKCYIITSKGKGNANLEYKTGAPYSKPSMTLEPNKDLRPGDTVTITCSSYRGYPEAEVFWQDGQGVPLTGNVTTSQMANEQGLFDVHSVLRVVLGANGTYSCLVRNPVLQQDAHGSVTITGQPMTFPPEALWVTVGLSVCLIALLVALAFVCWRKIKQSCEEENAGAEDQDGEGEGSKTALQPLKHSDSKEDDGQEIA

Measured: binding

B1: IgG1-b12-K409R (antibody, V domains shown)
VH: QVQLVQSGAEVKKPGASVKVSCQASGYRFSNFVIHWVRQAPGQRFEWMGWINPYNGNKEFSAKFQDRVTFTADTSANTAYMELRSLRSADTAVYYCARVGPYSWDDSPQDNYYMDVWGKGTTVIVSS
VL: EIVLTQSPGTLSLSPGERATFSCRSSHSIRSRRVAWYQHKPGQAPRLVIHGVSNRASGISDRFSGSGSGTDFTLTITRVEPEDFALYYCQVYGASSYTFGQGTKLERKR
no binding (tested: 30 µg/ml): all assays above
